Measured values from EP4792891A2 (LTZ Therapeutics Inc., dated 2026).
No constants are given. Whether binding was seen depends on the method and setting. Some binding calls cover weakened binding; strength is not graded here. For some of these results: Where a sequence is shown, tags or fusion partners need not be part of it.

T1: Human CLEC5A (C-type lectin domain family 5 member A) on the cell surface (human) (UniProt Q9NY25)
T1 sequence: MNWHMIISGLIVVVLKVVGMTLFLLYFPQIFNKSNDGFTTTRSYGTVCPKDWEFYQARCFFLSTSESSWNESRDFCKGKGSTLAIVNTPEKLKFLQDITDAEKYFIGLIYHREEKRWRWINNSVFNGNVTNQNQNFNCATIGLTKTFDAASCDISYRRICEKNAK

T2: recombinant human CLEC5A, His Tag (ACROBiosystems, Cat#: NC1-H52H4) (human) (UniProt Q9NY25)
T2 sequence: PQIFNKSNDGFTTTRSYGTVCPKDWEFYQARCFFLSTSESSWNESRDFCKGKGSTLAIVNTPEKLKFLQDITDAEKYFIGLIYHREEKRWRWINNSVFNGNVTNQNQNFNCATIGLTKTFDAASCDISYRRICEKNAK


Key:
[1] = target: T1, Human CLEC5A (C-type lectin domain family 5 member A) on the cell surface (human); assay: flow cytometry on human M0 macrophages
[2] = target: T2, recombinant human CLEC5A, His Tag (ACROBiosystems, Cat#: NC1-H52H4) (human); assay: BLI, antibody captured on anti-human IgG Fc probe, CLEC5A at 11 nM, 1:1 model

binding [1] | binding [2] | Binder
binds | binds | chimeric anti-CLEC5A antibody 5C7 (antibody, V domains shown) VH: QSLEESGGDLVKPGASLTLTCTASGFSFSRSSYMCWVRQAPGKGLEWIGCLSVGDGHTYYASWAKGRFTISKTSSTSVTLQMTRLTAADTATYFCARAPSYSGDGGHGYDLWGPGTLVTVSS VL: AIVMTQTPSSKSVPVGDTVTINCQASESVDRNNRLAWFQQKPGQPPKLLIYTTSTLASGVPSRFKGSGSGTHFTLTISDVVPDDAATYYCAGYRGAHTDGDAFGGGTEVVVK
binds | binds | chimeric anti-CLEC5A antibody 3A7 (antibody, human IgG1, V domains shown) VH: QSLEESGGDLVKPGASLTLTCTASGFSFSGMYWICWVRQAPGKGLEWIACIYTGSSTTGYASWAKGRFTISKTSSTTVTLQMTSLTAADTATHFCASPYGDSSHYRGLNLWGPGTLVTVSS VL: AVVMTQTPASVEAAVGGTVTINCQASQRINNYLSWFQQKPGQPPKLLIYGAATLASGVPSRFKGSGSGTEYTLTISDLEPADAATYYCQCTYGIPSSNYGFGGGTEVVVK
